Measured values from the supplement of paper PMC12823440, “Inhibitors supercharge kinase turnover through native proteolytic circuits” (Nature, 2025).
Where a name gives a salt, the structure may show the parent alone. The list shows a part of the results. The calls rarely recur for the same compound in another form.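 Kinases, fused to nanoluciferase, were expressed in K562 cells; luminescence was measured every 4 h from 2 to 18 h as percent of control (DMSO = 100%, positive control = 0%). A time point is decreased if signal falls significantly (2 sigma). Hits were called by the authors by a rule that is not shown; the count of time points alone does not decide it.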

The chains behind the UniProt entries cited, without tags or fusion partners. Where a name states a change or a piece, a line headed by the entry shows the natural chain unless it says otherwise.
UniProt O75460: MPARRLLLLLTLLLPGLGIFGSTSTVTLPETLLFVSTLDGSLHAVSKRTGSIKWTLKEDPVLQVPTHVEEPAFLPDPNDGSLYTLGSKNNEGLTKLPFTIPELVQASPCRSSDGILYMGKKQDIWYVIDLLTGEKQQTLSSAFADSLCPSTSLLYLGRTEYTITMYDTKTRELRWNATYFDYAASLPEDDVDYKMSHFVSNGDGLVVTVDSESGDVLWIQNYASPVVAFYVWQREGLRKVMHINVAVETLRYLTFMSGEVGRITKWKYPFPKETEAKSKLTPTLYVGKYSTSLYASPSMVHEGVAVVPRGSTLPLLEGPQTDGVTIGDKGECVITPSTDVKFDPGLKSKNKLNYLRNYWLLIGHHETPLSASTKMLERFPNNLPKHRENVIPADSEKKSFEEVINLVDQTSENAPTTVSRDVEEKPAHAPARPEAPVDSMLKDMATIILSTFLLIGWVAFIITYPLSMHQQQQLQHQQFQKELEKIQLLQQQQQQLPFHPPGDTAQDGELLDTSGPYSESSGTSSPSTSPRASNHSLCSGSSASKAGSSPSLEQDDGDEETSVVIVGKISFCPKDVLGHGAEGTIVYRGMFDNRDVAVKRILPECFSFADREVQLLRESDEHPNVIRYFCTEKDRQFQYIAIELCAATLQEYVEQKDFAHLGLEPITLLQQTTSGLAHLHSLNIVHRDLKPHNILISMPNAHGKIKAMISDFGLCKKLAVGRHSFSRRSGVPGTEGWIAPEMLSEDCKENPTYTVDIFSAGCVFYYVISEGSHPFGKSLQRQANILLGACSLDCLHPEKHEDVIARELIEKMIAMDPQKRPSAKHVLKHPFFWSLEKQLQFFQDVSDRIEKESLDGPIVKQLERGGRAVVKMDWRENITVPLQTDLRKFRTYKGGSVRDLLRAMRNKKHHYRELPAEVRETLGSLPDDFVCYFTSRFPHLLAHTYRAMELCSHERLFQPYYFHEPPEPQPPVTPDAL
UniProt P21802, whole entry, looked up: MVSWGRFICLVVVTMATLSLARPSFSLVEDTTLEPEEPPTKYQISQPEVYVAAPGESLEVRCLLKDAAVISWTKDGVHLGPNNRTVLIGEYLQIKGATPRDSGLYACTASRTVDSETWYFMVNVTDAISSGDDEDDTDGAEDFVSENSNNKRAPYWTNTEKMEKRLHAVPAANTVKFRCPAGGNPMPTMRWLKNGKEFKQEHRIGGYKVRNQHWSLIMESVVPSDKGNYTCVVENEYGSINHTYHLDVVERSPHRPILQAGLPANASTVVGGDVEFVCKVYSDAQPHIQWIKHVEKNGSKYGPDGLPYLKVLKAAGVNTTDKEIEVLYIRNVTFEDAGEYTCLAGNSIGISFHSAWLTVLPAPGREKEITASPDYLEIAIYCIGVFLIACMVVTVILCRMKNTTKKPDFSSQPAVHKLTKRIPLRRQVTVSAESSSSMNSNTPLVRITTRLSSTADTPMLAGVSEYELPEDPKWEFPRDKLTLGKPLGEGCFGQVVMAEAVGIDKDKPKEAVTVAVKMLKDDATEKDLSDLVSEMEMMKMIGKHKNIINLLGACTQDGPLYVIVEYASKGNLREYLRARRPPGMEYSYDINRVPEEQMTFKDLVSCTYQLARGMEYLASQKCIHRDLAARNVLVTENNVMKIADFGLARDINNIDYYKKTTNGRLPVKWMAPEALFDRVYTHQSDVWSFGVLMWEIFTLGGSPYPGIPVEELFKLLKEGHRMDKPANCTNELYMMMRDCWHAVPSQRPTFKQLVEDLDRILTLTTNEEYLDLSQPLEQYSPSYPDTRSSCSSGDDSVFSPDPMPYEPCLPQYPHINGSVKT
UniProt P06241, whole entry, looked up: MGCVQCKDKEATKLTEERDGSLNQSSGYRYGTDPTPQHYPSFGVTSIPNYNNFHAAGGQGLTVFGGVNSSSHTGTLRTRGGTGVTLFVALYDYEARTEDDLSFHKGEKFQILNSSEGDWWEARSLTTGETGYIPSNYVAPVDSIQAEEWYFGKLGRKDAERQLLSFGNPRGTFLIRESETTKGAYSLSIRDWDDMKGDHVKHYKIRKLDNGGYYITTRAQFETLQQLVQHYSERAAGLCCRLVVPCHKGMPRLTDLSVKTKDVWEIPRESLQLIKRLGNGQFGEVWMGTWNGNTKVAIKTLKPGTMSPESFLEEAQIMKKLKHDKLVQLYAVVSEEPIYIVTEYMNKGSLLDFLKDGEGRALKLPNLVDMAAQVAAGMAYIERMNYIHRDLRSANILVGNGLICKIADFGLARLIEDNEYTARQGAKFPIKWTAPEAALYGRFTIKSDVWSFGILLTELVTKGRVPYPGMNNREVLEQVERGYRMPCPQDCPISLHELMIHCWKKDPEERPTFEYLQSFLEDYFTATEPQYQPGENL
UniProt P49840: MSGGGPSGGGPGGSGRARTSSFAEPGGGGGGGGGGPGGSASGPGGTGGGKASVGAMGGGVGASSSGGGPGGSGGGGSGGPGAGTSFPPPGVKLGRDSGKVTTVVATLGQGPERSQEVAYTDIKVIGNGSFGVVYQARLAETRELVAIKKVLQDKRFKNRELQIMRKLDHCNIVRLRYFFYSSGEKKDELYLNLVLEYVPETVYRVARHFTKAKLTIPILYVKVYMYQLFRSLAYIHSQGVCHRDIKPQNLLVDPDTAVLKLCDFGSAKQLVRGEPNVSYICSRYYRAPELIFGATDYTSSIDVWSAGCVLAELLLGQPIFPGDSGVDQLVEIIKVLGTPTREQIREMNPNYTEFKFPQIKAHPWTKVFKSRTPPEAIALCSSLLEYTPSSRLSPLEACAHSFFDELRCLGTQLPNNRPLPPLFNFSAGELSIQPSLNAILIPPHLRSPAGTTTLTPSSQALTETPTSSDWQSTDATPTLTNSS
UniProt P14616: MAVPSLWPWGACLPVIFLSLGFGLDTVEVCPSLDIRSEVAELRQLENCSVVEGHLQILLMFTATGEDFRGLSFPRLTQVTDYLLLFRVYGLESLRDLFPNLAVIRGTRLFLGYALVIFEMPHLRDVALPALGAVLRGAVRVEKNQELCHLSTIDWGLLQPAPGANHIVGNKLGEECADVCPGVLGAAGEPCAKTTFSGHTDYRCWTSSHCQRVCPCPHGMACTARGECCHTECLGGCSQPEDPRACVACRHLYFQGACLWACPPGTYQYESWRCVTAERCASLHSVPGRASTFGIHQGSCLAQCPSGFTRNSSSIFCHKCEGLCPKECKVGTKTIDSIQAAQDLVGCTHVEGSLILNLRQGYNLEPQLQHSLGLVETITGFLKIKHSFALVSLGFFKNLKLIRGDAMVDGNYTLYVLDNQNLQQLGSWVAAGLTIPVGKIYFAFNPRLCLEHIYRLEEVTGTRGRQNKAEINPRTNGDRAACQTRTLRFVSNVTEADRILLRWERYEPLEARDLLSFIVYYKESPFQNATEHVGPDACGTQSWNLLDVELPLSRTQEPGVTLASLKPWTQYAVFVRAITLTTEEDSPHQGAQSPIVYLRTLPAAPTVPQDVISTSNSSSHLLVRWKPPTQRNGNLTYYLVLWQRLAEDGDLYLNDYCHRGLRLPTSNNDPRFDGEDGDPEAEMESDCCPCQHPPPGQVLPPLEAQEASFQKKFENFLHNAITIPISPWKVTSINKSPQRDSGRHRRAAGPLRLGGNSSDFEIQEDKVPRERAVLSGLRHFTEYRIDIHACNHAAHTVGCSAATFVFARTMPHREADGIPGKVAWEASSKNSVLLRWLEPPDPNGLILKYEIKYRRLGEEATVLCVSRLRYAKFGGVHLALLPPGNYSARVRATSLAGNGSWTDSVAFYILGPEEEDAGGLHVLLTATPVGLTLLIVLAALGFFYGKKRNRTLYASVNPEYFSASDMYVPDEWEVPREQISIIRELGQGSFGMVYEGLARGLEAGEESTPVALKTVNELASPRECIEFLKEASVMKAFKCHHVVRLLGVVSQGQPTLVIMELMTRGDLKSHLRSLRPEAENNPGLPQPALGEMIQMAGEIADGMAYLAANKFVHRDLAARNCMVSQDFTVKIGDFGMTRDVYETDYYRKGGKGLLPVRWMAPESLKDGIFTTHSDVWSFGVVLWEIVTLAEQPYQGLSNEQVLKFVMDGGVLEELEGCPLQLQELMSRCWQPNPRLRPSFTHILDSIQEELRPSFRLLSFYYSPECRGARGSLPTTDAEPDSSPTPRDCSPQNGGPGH
UniProt Q9Y616: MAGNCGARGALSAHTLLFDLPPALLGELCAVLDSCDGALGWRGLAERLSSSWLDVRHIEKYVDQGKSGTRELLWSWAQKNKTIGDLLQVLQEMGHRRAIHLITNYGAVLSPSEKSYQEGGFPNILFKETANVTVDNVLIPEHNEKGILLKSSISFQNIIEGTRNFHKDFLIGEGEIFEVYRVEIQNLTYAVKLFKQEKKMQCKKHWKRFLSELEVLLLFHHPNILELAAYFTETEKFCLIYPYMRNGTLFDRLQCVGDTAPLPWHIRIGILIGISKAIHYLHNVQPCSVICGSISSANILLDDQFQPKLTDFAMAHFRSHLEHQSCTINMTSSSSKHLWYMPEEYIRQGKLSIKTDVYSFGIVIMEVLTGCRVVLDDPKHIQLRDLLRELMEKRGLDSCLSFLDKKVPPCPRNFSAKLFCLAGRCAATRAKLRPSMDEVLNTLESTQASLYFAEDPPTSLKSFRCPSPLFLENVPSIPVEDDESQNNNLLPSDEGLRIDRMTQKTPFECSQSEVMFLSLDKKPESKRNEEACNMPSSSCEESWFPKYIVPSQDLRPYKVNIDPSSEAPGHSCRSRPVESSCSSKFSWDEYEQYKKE
UniProt P23458: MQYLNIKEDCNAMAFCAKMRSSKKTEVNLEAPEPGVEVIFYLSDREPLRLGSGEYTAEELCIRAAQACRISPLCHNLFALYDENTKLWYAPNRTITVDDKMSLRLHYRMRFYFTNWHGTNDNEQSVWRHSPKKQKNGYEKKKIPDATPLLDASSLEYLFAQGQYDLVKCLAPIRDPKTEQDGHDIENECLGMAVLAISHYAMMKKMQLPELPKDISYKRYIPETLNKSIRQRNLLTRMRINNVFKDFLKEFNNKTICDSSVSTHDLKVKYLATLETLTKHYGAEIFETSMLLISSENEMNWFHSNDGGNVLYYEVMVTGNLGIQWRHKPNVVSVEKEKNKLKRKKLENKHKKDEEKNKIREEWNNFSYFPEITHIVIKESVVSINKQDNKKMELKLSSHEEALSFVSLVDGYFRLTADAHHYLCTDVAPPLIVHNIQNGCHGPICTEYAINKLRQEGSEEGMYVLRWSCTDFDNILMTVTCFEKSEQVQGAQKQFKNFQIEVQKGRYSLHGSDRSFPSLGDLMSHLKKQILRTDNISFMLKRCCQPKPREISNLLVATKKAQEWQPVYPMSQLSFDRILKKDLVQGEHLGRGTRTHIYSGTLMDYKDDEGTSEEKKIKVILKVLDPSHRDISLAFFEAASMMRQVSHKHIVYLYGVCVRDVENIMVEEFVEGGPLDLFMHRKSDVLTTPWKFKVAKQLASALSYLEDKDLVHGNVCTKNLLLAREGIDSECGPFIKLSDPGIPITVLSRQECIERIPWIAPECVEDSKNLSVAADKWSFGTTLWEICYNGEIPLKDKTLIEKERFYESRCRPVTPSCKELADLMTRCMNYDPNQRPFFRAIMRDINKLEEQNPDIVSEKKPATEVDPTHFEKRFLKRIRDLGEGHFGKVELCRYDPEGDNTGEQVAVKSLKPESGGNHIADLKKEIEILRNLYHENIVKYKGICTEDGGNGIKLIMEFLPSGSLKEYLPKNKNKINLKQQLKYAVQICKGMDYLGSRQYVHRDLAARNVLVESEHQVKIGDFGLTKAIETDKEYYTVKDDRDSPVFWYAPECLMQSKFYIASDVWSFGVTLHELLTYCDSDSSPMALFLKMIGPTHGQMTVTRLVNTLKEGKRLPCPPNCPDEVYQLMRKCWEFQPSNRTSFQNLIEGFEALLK
UniProt P53667: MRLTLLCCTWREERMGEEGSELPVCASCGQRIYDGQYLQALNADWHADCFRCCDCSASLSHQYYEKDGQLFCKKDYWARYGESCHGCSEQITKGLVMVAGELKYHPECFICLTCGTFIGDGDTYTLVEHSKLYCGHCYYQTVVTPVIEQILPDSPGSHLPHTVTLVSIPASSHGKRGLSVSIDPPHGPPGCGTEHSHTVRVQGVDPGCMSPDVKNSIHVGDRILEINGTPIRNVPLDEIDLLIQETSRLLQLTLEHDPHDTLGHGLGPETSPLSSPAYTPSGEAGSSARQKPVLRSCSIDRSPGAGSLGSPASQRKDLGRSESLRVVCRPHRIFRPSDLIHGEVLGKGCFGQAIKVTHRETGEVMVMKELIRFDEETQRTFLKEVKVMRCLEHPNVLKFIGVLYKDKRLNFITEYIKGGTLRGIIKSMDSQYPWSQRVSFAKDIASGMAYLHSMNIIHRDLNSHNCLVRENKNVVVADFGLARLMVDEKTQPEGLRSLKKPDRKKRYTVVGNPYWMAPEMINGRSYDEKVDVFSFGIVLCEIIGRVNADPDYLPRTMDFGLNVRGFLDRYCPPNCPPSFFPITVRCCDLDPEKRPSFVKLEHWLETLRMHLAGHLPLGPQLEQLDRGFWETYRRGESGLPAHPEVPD

Experiments:
Assay in all cases: number of time points (of 5) at which kinase-Nluc abundance scored as decreased, DMSO-normalised (count); higher = more persistent destabilization
Conditions in all cases: K562; 2-18 h
EGFR_L861Q = EGFR_L861Q (UniProt P00533)
EGFR_T790M = EGFR_T790M (UniProt P00533)
EPHA2 = EPHA2 (UniProt P29317)
ERBB3 = ERBB3 (UniProt P21860)
[1] = target: ERBB4_R711C (clone: ERBB4_mut) (UniProt Q15303)
ERN1 = ERN1 (UniProt O75460)
FGFR1 = FGFR1 (UniProt P11362)
FGFR2 = FGFR2 (UniProt P21802)
FGFR3 = FGFR3 (UniProt P22607)
FGR = FGR (UniProt P09769)
FLT3 = FLT3 (UniProt P36888)
FYN = FYN (UniProt P06241)
GSK3A = GSK3A (UniProt P49840)
HER2 = HER2 (UniProt P04626)
INSRR = INSRR (UniProt P14616)
IRAK3 = IRAK3 (UniProt Q9Y616)
JAK1 = JAK1 (UniProt P23458)
LCK = LCK (UniProt P06239)
LIMK1 = LIMK1 (UniProt P53667)
LIMK2 = LIMK2 (UniProt P53671)

| SMILES | number of time points (EGFR_L861Q) | number of time points (EGFR_T790M) | number of time points (EPHA2) | number of time points (ERBB3) | number of time points [1] | number of time points (ERN1) | number of time points (FGFR1) | number of time points (FGFR2) | number of time points (FGFR3) | number of time points (FGR) | number of time points (FLT3) | number of time points (FYN) | number of time points (GSK3A) | number of time points (HER2) | number of time points (INSRR) | number of time points (IRAK3) | number of time points (JAK1) | number of time points (LCK) | number of time points (LIMK1) | number of time points (LIMK2) |
| --- | --- | --- | --- | --- | --- | --- | --- | --- | --- | --- | --- | --- | --- | --- | --- | --- | --- | --- | --- | --- |
| CC[C@H](C)[C@H](NC(=O)[C@H](CCC(=O)O)NC(=O)[C@H](CCCN=C(N)N)NC(=O)[C@H](CCCN=C(N)N)NC(=O)[C@@H](N)CCCCN)C(=O)N[C@@H](CC(C)C)C(=O)N[C@@H](CO)C(=O)N[C@@H](CCCN=C(N)N)C(=O)N[C@@H](CCCN=C(N)N)C(=O)N1CCC[C@H]1C(=O)N[C@@H](CO)C(=O)N[C@@H](Cc1ccc(O)cc1)C(=O)N[C@@H](CCCN=C(N)N)C(=O)O [CREBtide] (10 µM) | 0 | 0 | 0 | 0 | 0 | 0 | 0 | 0 | 0 | 0 | 0 | 0 | 0 | 0 | 0 | 0 | 0 | 0 | 0 | 0 |
| COc1ccc(CN2C3CC2CN(c2ccc(-c4cc(OCC(C)(C)O)cn5ncc(C#N)c45)cn2)C3)cn1 [Selpercatinib] (10 µM) | 0 | 0 | 0 | 0 | 0 | 0 | 0 | 0 | 0 | 0 | 0 | 0 | 0 | 0 | 0 | 0 | 0 | 0 | 0 | 0 |
| O=c1cc(-c2ccc(O)c(O)c2O)oc2ccccc12 (10 µM) | 0 | 0 | 0 | 0 | 0 | 0 | 0 | 0 | 0 | 0 | 0 | 0 | 0 | 0 | 0 | 0 | 0 | 0 | 0 | 0 |
| CN(C)c1nc2c(Br)c(Br)c(Br)c(Br)c2n1CC(=O)O (10 µM) | 0 | 0 | 0 | 0 | 0 | 0 | 0 | 0 | 0 | 0 | 0 | 0 | 0 | 0 | 0 | 0 | 0 | 0 | 0 | 0 |
| CC(C)c1cnn2c(NCc3ccccc3-n3cccn3)nc(OC3CCCNC3)nc12 (stereo not given) (2.5 µM) | 1 | 0 | 1 | 0 | 2 | 1 | 0 | 0 | 0 | 0 | 0 | 0 | 0 | 0 | 0 | 0 | 0 | 0 | 0 | 0 |
| O=C(O)c1ccccc1Nc1cccc(C(F)(F)F)c1 [Flufenamic acid] (10 µM) | 0 | 0 | 0 | 0 | 0 | 0 | 0 | 0 | 0 | 0 | 0 | 0 | 0 | 0 | 0 | 0 | 0 | 0 | 0 | 0 |
| CCN1C(=O)CNc2ncc(-c3ccc(-c4nc[nH]n4)nc3C)nc21 [CC-115 (hydrochloride)] (2.5 µM) | 2 | 1 | 1 | 0 | 4 | 2 | 3 | 3 | 4 | 0 | 3 | 3 | 0 | 3 | 2 | 3 | 3 | 0 | 2 | 2 |
| O=C(O)c1ccc(N2N=C(Cc3ccccc3)C(=Cc3ccc(-c4ccccc4F)o3)C2=O)cc1 (10 µM) | 0 | 0 | 0 | 0 | 0 | 0 | 0 | 0 | 0 | 0 | 0 | 0 | 0 | 0 | 0 | 0 | 0 | 0 | 0 | 0 |
| CCc1c(C)sc(NC(=S)NC(=O)c2ccc(Cl)cc2)c1C(N)=O (10 µM) | 0 | 0 | 0 | 0 | 0 | 0 | 0 | 0 | 0 | 0 | 0 | 0 | 0 | 0 | 0 | 0 | 0 | 0 | 0 | 0 |
| COc1cc(N2CCC(N3CCN(C)CC3)CC2)ccc1Nc1nc2c(c(Nc3ccccc3S(=O)(=O)NC(C)C)n1)CCN2 [Conteltinib] (10 µM) | 0 | 0 | 0 | 0 | 0 | 0 | 0 | 0 | 0 | 0 | 0 | 0 | 0 | 0 | 0 | 0 | 0 | 0 | 0 | 0 |
| Oc1ccccc1C(=S)N1CCCC1 (10 µM) | 0 | 0 | 0 | 0 | 0 | 0 | 0 | 0 | 0 | 0 | 0 | 0 | 0 | 0 | 0 | 0 | 0 | 0 | 0 | 0 |
| C[C@@H]1COCCN1c1cc(=O)n2c(n1)N(Cc1cncc(Cl)c1)[C@H](C(F)(F)F)CC2 (10 µM) | 0 | 0 | 0 | 0 | 0 | 0 | 0 | 0 | 0 | 0 | 0 | 3 | 0 | 0 | 0 | 0 | 1 | 0 | 0 | 0 |
| C[C@H]1[C@H](OC(=O)CCC(=O)O)O[C@@H]2O[C@@]3(C)CC[C@H]4[C@H](C)CC[C@@H]1[C@@]24OO3 [Artesunate] (2.5 µM) | 2 | 0 | 0 | 0 | 1 | 0 | 0 | 0 | 0 | 0 | 1 | 1 | 0 | 0 | 0 | 0 | 0 | 0 | 0 | 0 |
| CC[C@@H]1[C@H](F)C(=O)N[C@@H]1COc1nccc2cc(C(N)=O)c(OC)cc12 (10 µM) | 0 | 0 | 0 | 0 | 0 | 0 | 0 | 0 | 0 | 0 | 0 | 0 | 0 | 0 | 0 | 0 | 0 | 0 | 0 | 0 |
| COc1ccc(CCNc2ncc3c(=O)n(-c4cccc(F)c4)c(=O)[nH]c3n2)cc1OC (2 µM) | 0 | 0 | 0 | 0 | 0 | 0 | 0 | 0 | 0 | 0 | 0 | 0 | 0 | 0 | 0 | 0 | 0 | 0 | 0 | 0 |
| Cc1cc(Nc2nc(N[C@@H](C)c3ncc(F)cn3)ncc2Cl)[nH]n1 (10 µM) | 0 | 0 | 0 | 0 | 0 | 0 | 0 | 0 | 0 | 0 | 0 | 0 | 0 | 0 | 0 | 0 | 0 | 0 | 0 | 0 |
| CC(C)n1cnc2c(Nc3cccc(Cl)c3)nc(NCCO)nc21 (10 µM) | 0 | 0 | 0 | 0 | 0 | 0 | 0 | 0 | 0 | 0 | 0 | 1 | 0 | 0 | 0 | 0 | 0 | 0 | 0 | 0 |
| CN1CCN(CCCNc2ncc(Cl)c(-c3cc4c(C(=O)NC5CC5)cccc4s3)n2)CC1 (10 µM) | 0 | 0 | 0 | 0 | 0 | 0 | 0 | 0 | 0 | 0 | 0 | 0 | 0 | 0 | 0 | 0 | 0 | 0 | 0 | 0 |
| O=C(Nc1ccc(Cl)c(Cl)c1)Nc1ccc2nnsc2c1 (10 µM) | 0 | 0 | 0 | 0 | 0 | 0 | 0 | 0 | 0 | 0 | 0 | 0 | 0 | 0 | 0 | 0 | 0 | 0 | 0 | 0 |
| CCC(C)(C)C(=O)N(O)Cc1ccccc1 (10 µM) | 0 | 0 | 0 | 0 | 0 | 0 | 0 | 0 | 0 | 0 | 0 | 0 | 0 | 0 | 0 | 0 | 0 | 0 | 0 | 0 |
| O=C(O)c1cc(O)c2c(c1)[C@@H]([C@H]1c3cc(C(=O)O)cc(O)c3C(=O)c3c(O[C@@H]4O[C@H](CO)[C@@H](O)[C@H](O)[C@H]4O)cccc31)c1cccc(O[C@@H]3O[C@H](CO)[C@@H](O)[C@H](O)[C@H]3O)c1C2=O [Sennoside B] (2.5 µM) | 0 | 0 | 0 | 0 | 0 | 0 | 0 | 0 | 0 | 0 | 0 | 0 | 0 | 0 | 0 | 0 | 0 | 0 | 0 | 0 |
| O=c1ccc2ccc(O)c(O)c2o1 [Daphnetin] (10 µM) | 0 | 0 | 0 | 0 | 0 | 0 | 0 | 0 | 0 | 0 | 0 | 0 | 0 | 0 | 0 | 0 | 0 | 0 | 0 | 0 |
| COc1cnccc1Nc1nc(-c2nn(Cc3c(F)cc(OCCO)cc3F)c3ccccc23)ncc1OC (10 µM) | 0 | 0 | 0 | 0 | 0 | 0 | 0 | 0 | 0 | 0 | 0 | 0 | 0 | 0 | 0 | 0 | 0 | 0 | 0 | 0 |
| Cn1ncc(Cl)c1-c1cc(C(=O)N[C@H](CN)Cc2ccc(F)c(F)c2)sc1Cl (10 µM) | 0 | 0 | 0 | 0 | 0 | 0 | 1 | 2 | 0 | 0 | 0 | 0 | 0 | 0 | 2 | 0 | 0 | 0 | 4 | 2 |

As a working copy, part of the list above.

| SMILES | number of time points (EGFR_L861Q) | number of time points (EGFR_T790M) | number of time points (EPHA2) | number of time points (ERBB3) | number of time points [1] | number of time points (ERN1) | number of time points (FGFR1) | number of time points (FGFR2) | number of time points (FGFR3) | number of time points (FGR) | number of time points (FLT3) | number of time points (FYN) | number of time points (GSK3A) | number of time points (HER2) | number of time points (INSRR) | number of time points (IRAK3) | number of time points (JAK1) | number of time points (LCK) | number of time points (LIMK1) | number of time points (LIMK2) |
| --- | --- | --- | --- | --- | --- | --- | --- | --- | --- | --- | --- | --- | --- | --- | --- | --- | --- | --- | --- | --- |
| COc1ccc(CN2C3CC2CN(c2ccc(-c4cc(OCC(C)(C)O)cn5ncc(C#N)c45)cn2)C3)cn1 [Selpercatinib] (10 µM) | 0 | 0 | 0 | 0 | 0 | 0 | 0 | 0 | 0 | 0 | 0 | 0 | 0 | 0 | 0 | 0 | 0 | 0 | 0 | 0 |
| O=c1cc(-c2ccc(O)c(O)c2O)oc2ccccc12 (10 µM) | 0 | 0 | 0 | 0 | 0 | 0 | 0 | 0 | 0 | 0 | 0 | 0 | 0 | 0 | 0 | 0 | 0 | 0 | 0 | 0 |
